Source: the supplement of paper PMC10849652
Some of the results follow.

Chains of the proteins cited; added tags and fusions are not shown. Lines headed by an entry give the natural chain unless they say otherwise; changes in a name come on top.
UniProt Q9NQW7: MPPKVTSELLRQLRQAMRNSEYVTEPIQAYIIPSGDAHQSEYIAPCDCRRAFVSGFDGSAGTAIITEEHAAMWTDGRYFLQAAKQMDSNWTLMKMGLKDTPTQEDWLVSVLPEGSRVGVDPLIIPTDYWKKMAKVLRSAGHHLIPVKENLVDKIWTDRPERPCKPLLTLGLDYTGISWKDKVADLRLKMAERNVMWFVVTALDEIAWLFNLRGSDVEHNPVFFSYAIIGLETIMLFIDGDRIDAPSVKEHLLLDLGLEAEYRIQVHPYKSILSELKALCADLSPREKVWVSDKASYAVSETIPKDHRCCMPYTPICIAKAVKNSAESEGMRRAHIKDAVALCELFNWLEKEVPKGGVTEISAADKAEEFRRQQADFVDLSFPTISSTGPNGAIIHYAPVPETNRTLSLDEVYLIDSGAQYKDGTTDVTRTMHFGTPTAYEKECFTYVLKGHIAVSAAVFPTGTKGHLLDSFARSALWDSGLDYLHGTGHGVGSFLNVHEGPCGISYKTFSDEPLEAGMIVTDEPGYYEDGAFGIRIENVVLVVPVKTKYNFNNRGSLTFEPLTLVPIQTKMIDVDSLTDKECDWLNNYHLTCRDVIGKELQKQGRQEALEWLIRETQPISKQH
UniProt O43542: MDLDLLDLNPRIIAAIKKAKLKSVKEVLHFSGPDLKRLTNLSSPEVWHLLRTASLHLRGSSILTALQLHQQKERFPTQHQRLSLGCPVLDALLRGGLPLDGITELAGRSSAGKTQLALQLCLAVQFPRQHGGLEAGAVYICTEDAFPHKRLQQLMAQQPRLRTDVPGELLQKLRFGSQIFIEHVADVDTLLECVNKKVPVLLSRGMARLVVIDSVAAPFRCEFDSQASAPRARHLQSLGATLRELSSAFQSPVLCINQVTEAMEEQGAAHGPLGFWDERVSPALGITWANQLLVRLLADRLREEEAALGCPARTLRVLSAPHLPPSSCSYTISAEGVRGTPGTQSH
UniProt Q6FIF0: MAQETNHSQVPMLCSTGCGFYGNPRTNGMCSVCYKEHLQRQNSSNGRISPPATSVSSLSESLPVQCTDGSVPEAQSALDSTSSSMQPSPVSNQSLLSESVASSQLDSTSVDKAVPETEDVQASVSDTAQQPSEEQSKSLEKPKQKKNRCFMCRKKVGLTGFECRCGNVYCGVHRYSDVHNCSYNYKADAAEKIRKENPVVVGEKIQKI
UniProt Q6NZY4: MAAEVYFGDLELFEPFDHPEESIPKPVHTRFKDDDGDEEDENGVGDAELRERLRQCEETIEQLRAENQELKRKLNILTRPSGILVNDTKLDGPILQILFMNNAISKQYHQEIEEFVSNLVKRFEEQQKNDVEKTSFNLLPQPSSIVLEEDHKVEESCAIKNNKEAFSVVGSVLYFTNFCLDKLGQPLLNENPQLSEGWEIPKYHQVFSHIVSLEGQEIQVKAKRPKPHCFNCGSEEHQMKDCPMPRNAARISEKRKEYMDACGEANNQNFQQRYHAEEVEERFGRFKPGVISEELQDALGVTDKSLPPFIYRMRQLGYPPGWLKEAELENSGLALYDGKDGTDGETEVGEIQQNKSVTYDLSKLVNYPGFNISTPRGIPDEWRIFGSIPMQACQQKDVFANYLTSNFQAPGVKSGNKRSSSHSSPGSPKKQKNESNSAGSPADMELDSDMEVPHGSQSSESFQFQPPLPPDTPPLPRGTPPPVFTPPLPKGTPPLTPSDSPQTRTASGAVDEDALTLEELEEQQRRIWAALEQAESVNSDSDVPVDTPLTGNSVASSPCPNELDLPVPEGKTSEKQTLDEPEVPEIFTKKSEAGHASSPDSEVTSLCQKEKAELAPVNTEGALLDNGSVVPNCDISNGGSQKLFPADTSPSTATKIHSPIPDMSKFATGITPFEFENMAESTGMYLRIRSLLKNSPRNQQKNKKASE
UniProt Q9UPT8: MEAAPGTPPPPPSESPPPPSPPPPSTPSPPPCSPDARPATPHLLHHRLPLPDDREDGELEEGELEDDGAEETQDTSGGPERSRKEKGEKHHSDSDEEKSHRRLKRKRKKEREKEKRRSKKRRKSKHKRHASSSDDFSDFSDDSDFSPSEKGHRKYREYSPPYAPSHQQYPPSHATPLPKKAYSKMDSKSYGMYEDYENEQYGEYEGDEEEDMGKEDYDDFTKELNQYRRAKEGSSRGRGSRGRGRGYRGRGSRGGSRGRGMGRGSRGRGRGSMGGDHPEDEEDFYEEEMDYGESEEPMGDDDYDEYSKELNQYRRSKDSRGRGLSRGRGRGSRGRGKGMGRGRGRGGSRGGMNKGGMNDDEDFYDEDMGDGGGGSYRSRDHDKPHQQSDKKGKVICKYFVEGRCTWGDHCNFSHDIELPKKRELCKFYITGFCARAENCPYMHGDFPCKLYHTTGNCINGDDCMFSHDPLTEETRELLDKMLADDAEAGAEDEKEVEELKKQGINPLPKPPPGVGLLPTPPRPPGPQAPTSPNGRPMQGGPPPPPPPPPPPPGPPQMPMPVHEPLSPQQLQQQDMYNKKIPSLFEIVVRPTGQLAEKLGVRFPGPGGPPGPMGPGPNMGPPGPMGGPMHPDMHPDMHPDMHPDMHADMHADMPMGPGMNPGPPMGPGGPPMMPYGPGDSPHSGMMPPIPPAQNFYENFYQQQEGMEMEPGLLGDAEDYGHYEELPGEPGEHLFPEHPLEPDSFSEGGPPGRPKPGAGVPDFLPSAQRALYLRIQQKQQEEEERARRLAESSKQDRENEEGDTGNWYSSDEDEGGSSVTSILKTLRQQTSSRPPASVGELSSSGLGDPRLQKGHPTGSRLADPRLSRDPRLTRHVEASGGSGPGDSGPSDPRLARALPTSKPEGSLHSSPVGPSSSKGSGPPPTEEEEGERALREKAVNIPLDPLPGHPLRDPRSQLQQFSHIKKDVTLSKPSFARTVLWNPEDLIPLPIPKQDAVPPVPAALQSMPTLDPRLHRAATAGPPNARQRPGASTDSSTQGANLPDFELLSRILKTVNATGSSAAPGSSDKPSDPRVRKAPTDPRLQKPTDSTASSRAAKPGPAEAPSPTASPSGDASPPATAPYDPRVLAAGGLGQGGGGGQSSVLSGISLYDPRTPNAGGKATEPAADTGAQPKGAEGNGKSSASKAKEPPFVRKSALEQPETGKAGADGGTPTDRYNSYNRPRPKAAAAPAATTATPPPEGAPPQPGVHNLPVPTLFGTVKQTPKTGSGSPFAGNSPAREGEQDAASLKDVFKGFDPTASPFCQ
UniProt Q9Y5A9: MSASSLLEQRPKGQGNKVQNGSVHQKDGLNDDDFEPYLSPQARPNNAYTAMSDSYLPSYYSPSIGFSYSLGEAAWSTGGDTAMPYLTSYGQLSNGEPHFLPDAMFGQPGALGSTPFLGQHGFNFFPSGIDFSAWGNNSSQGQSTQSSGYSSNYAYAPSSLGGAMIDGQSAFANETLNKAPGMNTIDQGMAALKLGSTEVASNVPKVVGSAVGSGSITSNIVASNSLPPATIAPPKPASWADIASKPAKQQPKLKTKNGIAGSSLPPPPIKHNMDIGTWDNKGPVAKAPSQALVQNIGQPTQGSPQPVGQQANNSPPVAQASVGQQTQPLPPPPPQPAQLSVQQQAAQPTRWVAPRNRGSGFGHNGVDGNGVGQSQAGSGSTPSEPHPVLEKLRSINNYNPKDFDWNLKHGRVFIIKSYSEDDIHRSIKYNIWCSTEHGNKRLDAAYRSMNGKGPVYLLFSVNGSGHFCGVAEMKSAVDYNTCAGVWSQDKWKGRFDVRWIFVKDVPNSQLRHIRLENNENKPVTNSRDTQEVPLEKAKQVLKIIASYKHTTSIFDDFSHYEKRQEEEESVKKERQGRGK
UniProt Q7Z3T8: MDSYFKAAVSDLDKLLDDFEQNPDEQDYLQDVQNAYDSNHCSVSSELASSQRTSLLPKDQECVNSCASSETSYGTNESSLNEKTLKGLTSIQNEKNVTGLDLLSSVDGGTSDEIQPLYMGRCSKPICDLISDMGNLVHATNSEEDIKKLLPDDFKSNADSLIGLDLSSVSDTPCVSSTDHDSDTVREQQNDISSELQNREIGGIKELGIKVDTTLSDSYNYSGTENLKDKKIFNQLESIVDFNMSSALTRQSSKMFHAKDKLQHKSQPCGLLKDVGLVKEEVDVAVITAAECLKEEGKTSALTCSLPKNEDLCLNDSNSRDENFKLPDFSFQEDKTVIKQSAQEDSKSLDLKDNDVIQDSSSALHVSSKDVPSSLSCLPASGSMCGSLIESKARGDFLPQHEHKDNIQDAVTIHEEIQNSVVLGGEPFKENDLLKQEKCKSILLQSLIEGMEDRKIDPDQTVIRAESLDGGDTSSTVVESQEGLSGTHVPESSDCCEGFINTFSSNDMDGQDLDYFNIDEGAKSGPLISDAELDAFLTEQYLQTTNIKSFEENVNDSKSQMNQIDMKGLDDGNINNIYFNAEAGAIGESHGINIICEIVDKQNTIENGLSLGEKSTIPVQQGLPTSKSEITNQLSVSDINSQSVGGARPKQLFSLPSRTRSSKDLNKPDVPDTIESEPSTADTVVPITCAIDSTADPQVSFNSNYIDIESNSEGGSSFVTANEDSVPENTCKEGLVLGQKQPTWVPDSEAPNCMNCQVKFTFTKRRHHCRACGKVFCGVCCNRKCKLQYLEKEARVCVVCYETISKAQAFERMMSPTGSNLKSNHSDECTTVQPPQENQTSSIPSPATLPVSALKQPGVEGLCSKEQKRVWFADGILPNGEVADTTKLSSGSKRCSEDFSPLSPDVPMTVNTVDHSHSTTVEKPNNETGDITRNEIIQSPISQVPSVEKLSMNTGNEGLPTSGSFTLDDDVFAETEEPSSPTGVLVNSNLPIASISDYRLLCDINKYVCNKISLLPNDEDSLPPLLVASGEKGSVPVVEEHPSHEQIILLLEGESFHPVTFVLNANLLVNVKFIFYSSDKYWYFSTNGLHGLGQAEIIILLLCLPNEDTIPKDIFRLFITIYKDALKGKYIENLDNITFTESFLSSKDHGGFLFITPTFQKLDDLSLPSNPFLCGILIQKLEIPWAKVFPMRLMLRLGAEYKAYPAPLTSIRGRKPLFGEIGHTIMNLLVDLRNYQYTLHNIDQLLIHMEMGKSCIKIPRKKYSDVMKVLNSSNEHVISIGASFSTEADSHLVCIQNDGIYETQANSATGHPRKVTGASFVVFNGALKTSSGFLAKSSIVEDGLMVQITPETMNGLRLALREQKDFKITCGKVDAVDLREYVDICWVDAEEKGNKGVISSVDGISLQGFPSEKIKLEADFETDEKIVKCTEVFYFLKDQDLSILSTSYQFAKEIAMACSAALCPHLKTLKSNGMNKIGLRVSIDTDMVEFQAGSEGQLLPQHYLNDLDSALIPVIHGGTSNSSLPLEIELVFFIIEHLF
UniProt Q969M3: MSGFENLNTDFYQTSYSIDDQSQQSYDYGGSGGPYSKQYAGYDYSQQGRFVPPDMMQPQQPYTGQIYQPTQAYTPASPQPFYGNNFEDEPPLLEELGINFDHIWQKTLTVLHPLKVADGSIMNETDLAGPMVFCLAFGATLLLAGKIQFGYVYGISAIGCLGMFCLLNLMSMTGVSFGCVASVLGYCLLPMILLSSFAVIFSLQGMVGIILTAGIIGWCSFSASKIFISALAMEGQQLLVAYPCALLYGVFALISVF
UniProt Q9UBH6: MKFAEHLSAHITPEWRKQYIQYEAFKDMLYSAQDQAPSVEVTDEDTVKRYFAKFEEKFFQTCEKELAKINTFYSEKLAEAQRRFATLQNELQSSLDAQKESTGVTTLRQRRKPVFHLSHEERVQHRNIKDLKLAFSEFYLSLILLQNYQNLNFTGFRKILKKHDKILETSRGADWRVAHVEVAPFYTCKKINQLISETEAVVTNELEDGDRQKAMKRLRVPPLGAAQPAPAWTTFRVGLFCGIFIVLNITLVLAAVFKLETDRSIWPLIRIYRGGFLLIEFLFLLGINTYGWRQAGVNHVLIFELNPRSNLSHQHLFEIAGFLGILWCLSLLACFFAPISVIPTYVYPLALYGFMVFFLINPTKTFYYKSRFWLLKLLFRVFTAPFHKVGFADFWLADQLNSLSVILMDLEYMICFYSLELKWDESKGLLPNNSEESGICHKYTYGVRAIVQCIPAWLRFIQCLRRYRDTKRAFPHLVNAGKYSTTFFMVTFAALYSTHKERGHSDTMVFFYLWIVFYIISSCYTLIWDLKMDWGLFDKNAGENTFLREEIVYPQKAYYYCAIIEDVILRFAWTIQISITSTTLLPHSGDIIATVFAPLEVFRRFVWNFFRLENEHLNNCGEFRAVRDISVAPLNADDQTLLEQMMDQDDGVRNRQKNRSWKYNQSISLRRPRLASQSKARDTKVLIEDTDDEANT
UniProt Q9BSR8: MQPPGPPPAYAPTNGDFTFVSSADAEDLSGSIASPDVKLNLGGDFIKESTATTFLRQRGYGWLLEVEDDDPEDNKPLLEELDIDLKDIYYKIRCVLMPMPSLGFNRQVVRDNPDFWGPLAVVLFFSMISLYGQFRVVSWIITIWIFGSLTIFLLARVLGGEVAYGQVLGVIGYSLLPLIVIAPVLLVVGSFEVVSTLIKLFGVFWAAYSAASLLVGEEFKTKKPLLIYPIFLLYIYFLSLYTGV

compound: C1=CC=C(C=C1)[C@H](COC2=CC3=C(C=C2)NC(=O)N3)NC(=O)C4=CC=CN(C4=O)CC5=CC(=C(C=C5)F)F; assay: log2 fold change, soluble protein after heating vs DMSO (PISA); higher = thermal stabilisation; K562 lysate, 10 uM; active = over 0.2 and 3.5 SD of the protein, either way, in both replicates (recomputed)
Method in brief: (§1)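 Log-two fold change in thermal stability relative to solvent controls is reported from duplicates. For each sample, crude K562 extract from dounce-homogenised pellets in PBS pH 7.4 with 1 mM MgCl2, at 1 mg/mL protein, was treated with 10 μM compound for 30 min. Aliquots heated for 3 min across 48°C-58°C were pooled, brought to 0.5% NP-40 at 4°C and cleared at 21,000xg for 90 min. The supernatant was quantified by TMTpro 16plex LC-MS/MS with channel sums equalised.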

Target | log2 fold change
XPNPEP1 isoform 3 (UniProt Q9NQW7) | inactive: -0.007
XRCC3 (UniProt O43542) | inactive: 0.111
ZFAND6 (UniProt Q6FIF0) | inactive: 0.075
ZBTB3 (UniProt Q9H5J0) | inactive: 0.093
ZGPAT (UniProt Q8N5A5) | inactive: 0.044
ZC3H8 (UniProt Q8N5P1) | inactive: 0.04
ZCCHC8 (UniProt Q6NZY4) | inactive: 0.048
ZC3H4 (UniProt Q9UPT8) | inactive: 0.046
YTHDF2 (UniProt Q9Y5A9) | inactive: -0.033
ZFYVE16 (UniProt Q7Z3T8) | inactive: 0.01
YIPF5 isoform 3 (UniProt Q969M3) | inactive: -0.018
YTHDF3 (UniProt Q7Z739) | inactive: -0.111
XPR1 (UniProt Q9UBH6) | inactive: -0.003
YIPF4 (UniProt Q9BSR8) | inactive: -0.041
ZBTB17 isoform 2 (UniProt Q13105) | inactive: -0.075

compound: CC1=C(SC2=C1C(=N[C@H](C3=NN=C(N32)C)CC(=O)N)C4=CC=C(C=C4)Cl)C; assay: as above
Method in brief: as §1

Target | log2 fold change
YPEL5 (UniProt P62699) | inactive: -0.007
YIF1A (UniProt O95070) | inactive: -0.009
ZC3H11A (UniProt O75152) | inactive: 0
ZFYVE28 (UniProt Q9HCC9) | inactive: -0.131
XRCC1 (UniProt P18887) | inactive: -0.013
ZFPM2 (UniProt Q8WW38) | inactive: 0.246
ZBTB7B isoform 2 (UniProt O15156) | inactive: 0.08
XRCC5 (UniProt P13010) | inactive: -0.005
ZBTB10 (UniProt Q96DT7) | inactive: -0.037
ZFP91 (UniProt Q96JP5) | inactive: 0.014
ZDHHC3 isoform 2 (UniProt Q9NYG2) | inactive: -0.101
XPO5 (UniProt Q9HAV4) | inactive: -0.021
YLPM1 (UniProt P49750) | inactive: -0.04
ZFAND5 (UniProt O76080) | inactive: -0.031
YBX3 (UniProt P16989) | inactive: -0.006
ZC3H15 (UniProt Q8WU90) | inactive: 0.009
ZFYVE19 (UniProt Q96K21) | inactive: 0.042
YWHAH (UniProt Q04917) | inactive: -0.024
ZBTB21 (UniProt Q9ULJ3) | inactive: -0.147

Target | log2 fold change
XPNPEP3 (UniProt Q9NQH7) | inactive: -0.007
YARS2 (UniProt Q9Y2Z4) | inactive: -0.025
ZC3H13 (UniProt Q5T200) | inactive: -0.039
ZC3HAV1 (UniProt Q7Z2W4) | inactive: -0.021
XPNPEP1 isoform 3 (UniProt Q9NQW7) | inactive: -0.025
XRCC3 (UniProt O43542) | inactive: -0.053
ZFAND6 (UniProt Q6FIF0) | inactive: 0.013
ZBTB3 (UniProt Q9H5J0) | inactive: 0.173
ZGPAT (UniProt Q8N5A5) | inactive: -0.03
ZC3H8 (UniProt Q8N5P1) | inactive: 0.036
ZCCHC8 (UniProt Q6NZY4) | inactive: 0.009
ZC3H4 (UniProt Q9UPT8) | inactive: 0.017
YTHDF2 (UniProt Q9Y5A9) | inactive: -0.012
ZFYVE16 (UniProt Q7Z3T8) | inactive: -0.008
YIPF5 isoform 3 (UniProt Q969M3) | inactive: -0.001
YTHDF3 (UniProt Q7Z739) | inactive: 0.021
XPR1 (UniProt Q9UBH6) | inactive: -0.044
YIPF4 (UniProt Q9BSR8) | inactive: -0.064
ZBTB17 isoform 2 (UniProt Q13105) | inactive: 0.084

compound: CC1=C2C(=CC=C1)N=C(N(C2=O)C3=CC=CC=C3C)CN4C=NC5=C(N=CN=C54)N; assay: as above
Method in brief: as §1

Target | log2 fold change
YPEL5 (UniProt P62699) | inactive: -0.03
YIF1A (UniProt O95070) | inactive: 0.009
ZC3H11A (UniProt O75152) | inactive: 0.081
ZFYVE28 (UniProt Q9HCC9) | inactive: 0.048
XRCC1 (UniProt P18887) | inactive: 0.002
ZFPM2 (UniProt Q8WW38) | inactive: -0.042
XRCC5 (UniProt P13010) | inactive: 0.014
ZBTB10 (UniProt Q96DT7) | inactive: 0.114
ZFP91 (UniProt Q96JP5) | inactive: -0.047
ZDHHC3 isoform 2 (UniProt Q9NYG2) | inactive: 0.042
XPO5 (UniProt Q9HAV4) | inactive: 0.002
YLPM1 (UniProt P49750) | inactive: 0.034
ZFAND5 (UniProt O76080) | inactive: 0.081
YBX3 (UniProt P16989) | inactive: -0.015
ZC3H15 (UniProt Q8WU90) | inactive: -0.007
ZFYVE19 (UniProt Q96K21) | inactive: 0.012
YWHAH (UniProt Q04917) | inactive: -0.034
ZBTB21 (UniProt Q9ULJ3) | inactive: 0.038

Target | log2 fold change
XPNPEP3 (UniProt Q9NQH7) | inactive: -0.009
YARS2 (UniProt Q9Y2Z4) | inactive: 0.046
ZC3H13 (UniProt Q5T200) | inactive: 0.013
ZC3HAV1 (UniProt Q7Z2W4) | inactive: 0.027
XPNPEP1 isoform 3 (UniProt Q9NQW7) | inactive: 0.002
XRCC3 (UniProt O43542) | inactive: -0.103
ZFAND6 (UniProt Q6FIF0) | inactive: -0.017
ZBTB3 (UniProt Q9H5J0) | inactive: 0.137
ZGPAT (UniProt Q8N5A5) | inactive: 0.114
ZC3H8 (UniProt Q8N5P1) | inactive: 0.061
ZCCHC8 (UniProt Q6NZY4) | inactive: 0.005
ZC3H4 (UniProt Q9UPT8) | inactive: 0.007
YTHDF2 (UniProt Q9Y5A9) | inactive: -0.037
ZFYVE16 (UniProt Q7Z3T8) | inactive: 0.009
YIPF5 isoform 3 (UniProt Q969M3) | inactive: 0.002
YTHDF3 (UniProt Q7Z739) | inactive: 0.063
XPR1 (UniProt Q9UBH6) | inactive: -0.096
YIPF4 (UniProt Q9BSR8) | inactive: -0.027
